The supplement of paper PMC3353916
The data scatter; read single values as rough.

Tested on: Sindbis virus TE/5'2J-GFP
Experiment: percent infected (GFP+ in RFP+ ISG-expressing cells); higher = more infection (less antiviral activity)
Conditions: experiment: primary screen (single well)

MSLRIDVDTNFPECVVDAGKVTLGTQQRQEMDPRLREKQNEIILRAVCALLNSGGGIIKAEIENKGYNYERHGVGLDVPPIFRSHLDKMQKENHFLIFVKSWNTEAGVPLATLCSNLYHRERTSTDVMDSQEALAFLKCRTQTPTNINVSNSLGPQAAQGSVQYEGNINVSAAALFDRKRLQYLEKLNLPESTHVEFVMFSTDVSHCVKDRLPKCVSAFANTEGGYVFFGVHDETCQVIGCEKEKIDLTSLRASIDGCIKKLPVHHFCTQRPEIKYVLNFLEVHDKGALRGYVCAIKVEKFCCAVFAKVPSSWQVKDNRVRQLPTREWTAWMMEADPDLSRCPEMVLQLSLSSATPRSKPVCIHKNSECLKEQQKRYFPVFSDRVVYTPESLYKELFSQHKGLRDLINTEMRPFSQGILIFSQSWAVDLGLQEKQGVICDALLISQNNTPILYTIFSKWDAGCKGYSMIVAYSLKQKLVNKGGYTGRLCITPLVCVLNSDRKAQSVYSSYLQIYPESYNFMTPQHMEALLQSLVIVLLGFKSFLSEELGSEVLNLLTNKQYELLSKNLRKTRELFVHGLPGSGKTILALRIMEKIRNVFHCEPANILYICENQPLKKLVSFSKKNICQPVTRKTFMKNNFEHIQHIIIDDAQNFRTEDGDWYGKAKFITQTARDGPGVLWIFLDYFQTYHLSCSGLPPPSDQYPREEINRVVRNAGPIANYLQQVMQEARQNPPPNLPPGSLVMLYEPKWAQGVPGNLEIIEDLNLEEILIYVANKCRFLLRNGYSPKDIAVLFTKASEVEKYKDRLLTAMRKRKLSQLHEESDLLLQIGDASDVLTDHIVLDSVCRFSGLERNIVFGINPGVAPPAGAYNLLLCLASRAKRHLYILKASV [SLFN5]
percent infected (BHK/HA-Zeo (control)): 95.5% | percent infected (BHK/NZAP-Zeo (ZAP)): 88.3%

MSLVLLSLAALCRSAVPREPTVQCGSETGPSPEWMLQHDLIPGDLRDLRVEPVTTSVATGDYSILMNVSWVLRADASIRLLKATKICVTGKSNFQSYSCVRCNYTEAFQTQTRPSGGKWTFSYIGFPVELNTVYFIGAHNIPNANMNEDGPSMSVNFTSPGCLDHIMKYKKKCVKAGSLWDPNITACKKNEETVEVNFTTTPLGNRYMALIQHSTIIGFSQVFEPHQKKQTRASVVIPVTGDSEGATVQLTPYFPTCGSDCIRHKGTVVLCPQTGVPFPLDNNKSKPGGWLPLLLLSLLVATWVLVAGIYLMWRHERIKKTSFSTTTLLPPIKVLVVYPSEICFHHTICYFTEFLQNHCRSEVILEKWQKKKIAEMGPVQWLATQKKAADKVVFLLSNDVNSVCDGTCGKSEGSPSENSQDLFPLAFNLFCSDLRSQIHLHKYVVVYFREIDTKDDYNALSVCPKYHLMKDATAFCAELLHVKQQVSAGKRSQACHDGCCSL [IL17RB]
percent infected (BHK/HA-Zeo (control)): 97.9% | percent infected (BHK/NZAP-Zeo (ZAP)): 95.4%

MSNGYSTDENFRYLISCFRARVKMYIQVEPVLDYLTFLPAEVKEQIQRTVATSGNMQAVELLLSTLEKGVWHLGWTREFVEALRRTGSPLAARYMNPELTDLPSPSFENAHDEYLQLLNLLQPTLVDKLLVRDVLDKCMEEELLTIEDRNRIAAAENNGNESGVRELLKRIVQKENWFSAFLNVLRQTGNNELVQELTGSDCSESNAEIENLSQVDGPQVEEQLLSTTVQPNLEKEVWGMENNSSESSFADSSVVSESDTSLAEGSVSCLDESLGHNSNMGSDSGTMGSDSDEENVAARASPEPELQLRPYQMEVAQPALEGKNIIICLPTGSGKTRVAVYIAKDHLDKKKKASEPGKVIVLVNKVLLVEQLFRKEFQPFLKKWYRVIGLSGDTQLKISFPEVVKSCDIIISTAQILENSLLNLENGEDAGVQLSDFSLIIIDECHHTNKEAVYNNIMRHYLMQKLKNNRLKKENKPVIPLPQILGLTASPGVGGATKQAKAEEHILKLCANLDAFTIKTVKENLDQLKNQIQEPCKKFAIADATREDPFKEKLLEIMTRIQTYCQMSPMSDFGTQPYEQWAIQMEKKAAKEGNRKERVCAEHLRKYNEALQINDTIRMIDAYTHLETFYNEEKDKKFAVIEDDSDEGGDDEYCDGDEDEDDLKKPLKLDETDRFLMTLFFENNKMLKRLAENPEYENEKLTKLRNTIMEQYTRTEESARGIIFTKTRQSAYALSQWITENEKFAEVGVKAHHLIGAGHSSEFKPMTQNEQKEVISKFRTGKINLLIATTVAEEGLDIKECNIVIRYGLVTNEIAMVQARGRARADESTYVLVAHSGSGVIEHETVNDFREKMMYKAIHCVQNMKPEEYAHKILELQMQSIMEKKMKTKRNIAKHYKNNPSLITFLCKNCSVLACSGEDIHVIEKMHHVNMTPEFKELYIVRENKALQKKCADYQINGEIICKCGQAWGTMMVHKGLDLPCLKIRNFVVVFKNNSTKKQYKKWVELPITFPNLDYSECCLFSDED [IFIH1]
percent infected (BHK/HA-Zeo (control)): 96% | percent infected (BHK/NZAP-Zeo (ZAP)): 65.7%

MSPSLQEGAQLGENKPSTCSFSIERILGLDQKKDCVPLMKPHRPWADTCSSSGKDGNLCLHVPNPPSGISFPSVVDHPMPEERASKYENYFSASERLSLKRELSWYRGRRPRTAFTQNQIEVLENVFRVNCYPGIDIREDLAQKLNLEEDRIQIWFQNRRAKLKRSHRESQFLMAKKNFNTNLLE [HESX1]
percent infected (BHK/HA-Zeo (control)): 95.9% | percent infected (BHK/NZAP-Zeo (ZAP)): 94.6%

MSQWYELQQLDSKFLEQVHQLYDDSFPMEIRQYLAQWLEKQDWEHAANDVSFATIRFHDLLSQLDDQYSRFSLENNFLLQHNIRKSKRNLQDNFQEDPIQMSMIIYSCLKEERKILENAQRFNQAQSGNIQSTVMLDKQKELDSKVRNVKDKVMCIEHEIKSLEDLQDEYDFKCKTLQNREHETNGVAKSDQKQEQLLLKKMYLMLDNKRKEVVHKIIELLNVTELTQNALINDELVEWKRRQQSACIGGPPNACLDQLQNWFTIVAESLQQVRQQLKKLEELEQKYTYEHDPITKNKQVLWDRTFSLFQQLIQSSFVVERQPCMPTHPQRPLVLKTGVQFTVKLRLLVKLQELNYNLKVKVLFDKDVNERNTVKGFRKFNILGTHTKVMNMEESTNGSLAAEFRHLQLKEQKNAGTRTNEGPLIVTEELHSLSFETQLCQPGLVIDLETTSLPVVVISNVSQLPSGWASILWYNMLVAEPRNLSFFLTPPCARWAQLSEVLSWQFSSVTKRGLNVDQLNMLGEKLLGPNASPDGLIPWTRFCKENINDKNFPFWLWIESILELIKKHLLPLWNDGCIMGFISKERERALLKDQQPGTFLLRFSESSREGAITFTWVERSQNGGEPDFHAVEPYTKKELSAVTFPDIIRNYKVMAAENIPENPLKYLYPNIDKDHAFGKYYSRPKEAPEPMELDGPKGTGYIKTELISVSEVHPSRLQTTDNLLPMSPEEFDEVSRIVGSVEFDSMMNTV [STAT1]
percent infected (BHK/HA-Zeo (control)): 98.3% | percent infected (BHK/NZAP-Zeo (ZAP)): 97.2%

MSRRSQRLTRYSQGDDDGSSSSGGSSVAGSQSTLFKDSPLRTLKRKSSNMKRLSPAPQLGPSSDAHTSYYSESLVHESWFPPRSSLEELHGDANWGEDLRVRRRRGTGGSESSRASGLVGRKATEDFLGSSSGYSSEDDYVGYSDVDQQSSSSRLRSAVSRAGSLLWMVATSPGRLFRLLYWWAGTTWYRLTTAASLLDVFVLTRRFSSLKTFLWFLLPLLLLTCLTYGAWYFYPYGLQTFHPALVSWWAAKDSRRPDEGWEARDSSPHFQAEQRVMSRVHSLERRLEALAAEFSSNWQKEAMRLERLELRQGAPGQGGGGGLSHEDTLALLEGLVSRREAALKEDFRRETAARIQEELSALRAEHQQDSEDLFKKIVRASQESEARIQQLKSEWQSMTQESFQESSVKELRRLEDQLAGLQQELAALALKQSSVAEEVGLLPQQIQAVRDDVESQFPAWISQFLARGGGGRVGLLQREEMQAQLRELESKILTHVAEMQGKSAREAAASLSLTLQKEGVIGVTEEQVHHIVKQALQRYSEDRIGLADYALESGGASVISTRCSETYETKTALLSLFGIPLWYHSQSPRVILQPDVHPGNCWAFQGPQGFAVVRLSARIRPTAVTLEHVPKALSPNSTISSAPKDFAIFGFDEDLQQEGTLLGKFTYDQDGEPIQTFHFQAPTMATYQVVELRILTNWGHPEYTCIYRFRVHGEPAH [UNC84B]
percent infected (BHK/HA-Zeo (control)): 98.6% | percent infected (BHK/NZAP-Zeo (ZAP)): 95.3%

MSRSYNDELQFLEKINKNCWRIKKGFVPNMQVEGVFYVNDALEKLMFEELRNACRGGGVGGFLPAMKQIGNVAALPGIVHRSIGLPDVHSGYGFAIGNMAAFDMNDPEAVVSPGGVGFDINCGVRLLRTNLDESDVQPVKEQLAQAMFDHIPVGVGSKGVIPMNAKDLEEALEMGVDWSLREGYAWAEDKEHCEEYGRMLQADPNKVSARAKKRGLPQLGTLGAGNHYAEIQVVDEIFNEYAAKKMGIDHKGQVCVMIHSGSRGLGHQVATDALVAMEKAMKRDKIIVNDRQLACARIASPEGQDYLKGMAAAGNYAWVNRSSMTFLTRQAFAKVFNTTPDDLDLHVIYDVSHNIAKVEQHVVDGKERTLLVHRKGSTRAFPPHHPLIAVDYQLTGQPVLIGGTMGTCSYVLTGTEQGMTETFGTTCHGAGRALSRAKSRRNLDFQDVLDKLADMGIAIRVASPKLVMEEAPESYKNVTDVVNTCHDAGISKKAIKLRPIAVIKG [C22orf28]
percent infected (BHK/HA-Zeo (control)): 98.2%
